Laboratory results: PubChem BioAssay AID686943 (Drosophila RNAi Screening Center, 2013)
Aim: 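Knockdowns that increase or decrease active ERK after insulin receptor stimulation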 (primary screen). System: Drosophila S2R+ haemocyte-like cells expressing YFP-tagged ERK (Rolled). Reagents: long dsRNA against Drosophila genes. Treatment: insulin stimulation versus unstimulated cells; dose and duration not given. Read-out: 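Antibody staining for doubly phosphorylated ERK divided by ERK-YFP signal, as plate z-scores, in insulin-treated and untreated cells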. Scale: replicate 1, z-score of dpERK with insulin: higher = more active ERK per ERK-YFP after insulin.
The deposit covers about 23,000 reagents; this is an unselected part of those with a known target gene and a result. 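Extra replicates exist only for a retested subset of genes; insulin dose and duration not given; both raised and lowered dpERK matter.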 Not all columns of the deposit are shown. The record does not give: the amount of reagent, the time to read-out.

For Nsun2 [DRSC18662], what does the deposit list?
replicate 1, z-score of dpERK with insulin: 1.28

For CG18735 [DRSC04312], how do the results read?
replicate 1, z-score of dpERK with insulin: -0.33

With Akh [DRSC08138], how do the results read?
replicate 1, z-score of dpERK with insulin: -0.28

For PlexB [DRSC17177], what does the deposit list?
replicate 1, z-score of dpERK with insulin: -0.22

With Fatp (retired record) [DRSC03054], how do the results read?
replicate 1, z-score of dpERK with insulin: -0.06

Which result is listed for CG6040 [DRSC15954]?
replicate 1, z-score of dpERK with insulin: 0.24

With Gr93a [DRSC14593], what does the deposit list?
replicate 1, z-score of dpERK with insulin: -0.22

With Fili [DRSC03907], what was measured?
replicate 1, z-score of dpERK with insulin: 0.17

For Fili [DRSC04132], what does the deposit list?
replicate 1, z-score of dpERK with insulin: 0.59

With Fili [DRSC04445], how do the results read?
replicate 1, z-score of dpERK with insulin: -0.12

For l(1)G0196 [DRSC20591], what does the deposit list?
replicate 1, z-score of dpERK with insulin: -1.71

What did the screen give for l(1)G0196 [DRSC20629]?
replicate 1, z-score of dpERK with insulin: -0.77

Quoted from above, 2 entries:
l(1)G0196 [DRSC20591] → replicate 1, z-score of dpERK with insulin: -1.71
l(1)G0196 [DRSC20629] → replicate 1, z-score of dpERK with insulin: -0.77
